Data on one sequence can be found in PMC10407601.

This series has as its system PtNAC3 (Pinus tabuliformis). As to the kind of experiment: EMSA. The conditions noted are these: Beyotime EMSA luminous kit GS009; pH and temperature not stated; recombinant protein; protein details: GST; label: 5' biotin. For orientation: In EMSA bound probe runs differently from free probe, usually more slowly.

The exact form of at least one protein or probe is not confirmed.

Regarding “CATCCTCTATACGTAAAATTCTGGTTACCCACCAGGAAGTATCGCGTGTTT (double strand) [PtZFP30 promoter EMSA probe (ZFP30p)]”, the binding result is “binds”.
